This experiment addresses LexA-Max (UniProt P0A7C2). Description: yeast two-bait interaction trap, LexAop-LacZ reporter.

Chains of the proteins cited; added tags and fusions are not shown. Lines headed by an entry give the natural chain unless they say otherwise; changes in a name come on top.
UniProt P0A7C2: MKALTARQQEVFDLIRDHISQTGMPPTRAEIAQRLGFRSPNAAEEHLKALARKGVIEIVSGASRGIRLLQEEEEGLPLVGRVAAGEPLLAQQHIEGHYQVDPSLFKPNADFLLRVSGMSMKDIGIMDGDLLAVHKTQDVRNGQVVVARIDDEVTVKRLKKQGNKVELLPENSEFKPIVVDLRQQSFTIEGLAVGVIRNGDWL

Results are given in words; binding and its absence hold for the method and conditions named. Some entries that bind do so weakly or less than the wild type.

B1: B42-Mxi1 (other, UniProt P50539 1-228, looked up, not shown: large carriers)
chain: MERVKMINVQRLLEAAEFLERRERECEHGYASSFPSMPSPRLQHSKPPRRLSRAQKHSSGSSNTSTANRSTHNELEKNRRAHLRLCLERLKVLIPLGPDCTRHTTLGLLNKAKAHIKKLEEAERKSQHQLENLEREQRFLKWRLEQLQGPQEMERIRMDSIGSTISSDRSDSEREEIEVDVESTEFSHGEVDNISTTSISDIDDHSSLPSIGSDEGYSSASVKLSFTS
notes: Yeast two-hybrid prey, used as a positive control with Max
B1: the binding result is recorded as “binds”.
